The source of these data is the supplement of paper PMC11006884.

Protein sequences, listed by entry. Tags and fused reporters are not part of them. Lines headed by an entry give the natural chain unless they say otherwise; changes in a name come on top.
UniProt P49643: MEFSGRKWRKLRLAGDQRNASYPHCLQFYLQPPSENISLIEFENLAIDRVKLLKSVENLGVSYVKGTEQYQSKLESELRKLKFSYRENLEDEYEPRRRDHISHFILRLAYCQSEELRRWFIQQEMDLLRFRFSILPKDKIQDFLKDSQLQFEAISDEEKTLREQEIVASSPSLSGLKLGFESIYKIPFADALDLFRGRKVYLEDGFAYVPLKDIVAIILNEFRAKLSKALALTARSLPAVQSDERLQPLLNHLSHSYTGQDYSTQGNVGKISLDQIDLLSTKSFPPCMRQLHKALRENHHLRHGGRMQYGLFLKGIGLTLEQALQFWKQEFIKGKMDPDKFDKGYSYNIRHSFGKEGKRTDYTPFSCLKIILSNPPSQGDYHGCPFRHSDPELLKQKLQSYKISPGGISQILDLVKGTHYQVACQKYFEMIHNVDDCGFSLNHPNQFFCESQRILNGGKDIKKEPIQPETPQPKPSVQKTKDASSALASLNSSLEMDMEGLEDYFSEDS
UniProt P49915: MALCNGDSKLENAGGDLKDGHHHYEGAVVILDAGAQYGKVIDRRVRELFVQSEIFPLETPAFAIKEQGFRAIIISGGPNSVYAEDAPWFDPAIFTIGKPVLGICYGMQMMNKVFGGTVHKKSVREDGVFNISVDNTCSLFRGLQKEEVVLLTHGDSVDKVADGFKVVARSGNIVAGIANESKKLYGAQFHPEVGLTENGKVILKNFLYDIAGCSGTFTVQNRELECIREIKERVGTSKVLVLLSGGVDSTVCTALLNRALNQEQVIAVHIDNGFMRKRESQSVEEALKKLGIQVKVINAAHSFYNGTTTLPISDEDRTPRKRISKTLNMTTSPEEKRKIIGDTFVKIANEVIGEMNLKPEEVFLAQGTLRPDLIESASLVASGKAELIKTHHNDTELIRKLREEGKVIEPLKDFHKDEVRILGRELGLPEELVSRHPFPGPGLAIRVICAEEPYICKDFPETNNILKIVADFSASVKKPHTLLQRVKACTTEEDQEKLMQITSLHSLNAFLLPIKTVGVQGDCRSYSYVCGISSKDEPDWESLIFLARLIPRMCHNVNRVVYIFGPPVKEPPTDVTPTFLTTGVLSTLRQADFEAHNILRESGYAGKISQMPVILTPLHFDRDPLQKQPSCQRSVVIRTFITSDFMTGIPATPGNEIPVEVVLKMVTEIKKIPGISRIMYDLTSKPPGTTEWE
UniProt P50395: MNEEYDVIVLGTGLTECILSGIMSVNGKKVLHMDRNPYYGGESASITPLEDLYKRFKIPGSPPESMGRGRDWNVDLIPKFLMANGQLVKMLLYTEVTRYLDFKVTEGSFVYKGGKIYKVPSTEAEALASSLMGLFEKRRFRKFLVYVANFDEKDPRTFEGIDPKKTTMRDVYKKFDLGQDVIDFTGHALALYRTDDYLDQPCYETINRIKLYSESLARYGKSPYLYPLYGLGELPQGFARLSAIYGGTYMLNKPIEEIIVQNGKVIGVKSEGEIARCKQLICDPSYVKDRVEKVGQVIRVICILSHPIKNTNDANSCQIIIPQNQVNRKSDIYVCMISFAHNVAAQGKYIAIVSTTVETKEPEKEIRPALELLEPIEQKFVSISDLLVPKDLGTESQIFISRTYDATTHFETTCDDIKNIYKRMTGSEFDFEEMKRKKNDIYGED
UniProt P49821, whole entry, looked up: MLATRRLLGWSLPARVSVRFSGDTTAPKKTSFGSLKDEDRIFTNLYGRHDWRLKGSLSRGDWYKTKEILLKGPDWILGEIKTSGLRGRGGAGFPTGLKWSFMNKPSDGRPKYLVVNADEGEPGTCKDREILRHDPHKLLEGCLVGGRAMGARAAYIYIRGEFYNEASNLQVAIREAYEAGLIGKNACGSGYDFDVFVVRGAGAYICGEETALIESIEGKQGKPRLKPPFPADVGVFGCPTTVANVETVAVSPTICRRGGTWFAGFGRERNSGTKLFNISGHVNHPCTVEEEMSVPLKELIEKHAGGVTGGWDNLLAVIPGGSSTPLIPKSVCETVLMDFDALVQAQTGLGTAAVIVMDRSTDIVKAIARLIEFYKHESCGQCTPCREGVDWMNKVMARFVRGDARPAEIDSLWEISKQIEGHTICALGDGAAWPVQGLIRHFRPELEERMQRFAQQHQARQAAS
UniProt P50502: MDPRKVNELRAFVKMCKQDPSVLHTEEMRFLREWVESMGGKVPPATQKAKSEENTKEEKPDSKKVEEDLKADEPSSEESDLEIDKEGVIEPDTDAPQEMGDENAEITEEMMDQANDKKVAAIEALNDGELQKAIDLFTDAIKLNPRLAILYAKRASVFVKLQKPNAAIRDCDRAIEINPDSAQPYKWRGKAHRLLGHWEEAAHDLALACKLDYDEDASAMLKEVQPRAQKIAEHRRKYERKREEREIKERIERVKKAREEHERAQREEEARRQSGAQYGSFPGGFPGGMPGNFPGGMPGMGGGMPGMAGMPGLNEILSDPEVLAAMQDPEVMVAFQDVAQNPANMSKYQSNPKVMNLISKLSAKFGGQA
UniProt P50990: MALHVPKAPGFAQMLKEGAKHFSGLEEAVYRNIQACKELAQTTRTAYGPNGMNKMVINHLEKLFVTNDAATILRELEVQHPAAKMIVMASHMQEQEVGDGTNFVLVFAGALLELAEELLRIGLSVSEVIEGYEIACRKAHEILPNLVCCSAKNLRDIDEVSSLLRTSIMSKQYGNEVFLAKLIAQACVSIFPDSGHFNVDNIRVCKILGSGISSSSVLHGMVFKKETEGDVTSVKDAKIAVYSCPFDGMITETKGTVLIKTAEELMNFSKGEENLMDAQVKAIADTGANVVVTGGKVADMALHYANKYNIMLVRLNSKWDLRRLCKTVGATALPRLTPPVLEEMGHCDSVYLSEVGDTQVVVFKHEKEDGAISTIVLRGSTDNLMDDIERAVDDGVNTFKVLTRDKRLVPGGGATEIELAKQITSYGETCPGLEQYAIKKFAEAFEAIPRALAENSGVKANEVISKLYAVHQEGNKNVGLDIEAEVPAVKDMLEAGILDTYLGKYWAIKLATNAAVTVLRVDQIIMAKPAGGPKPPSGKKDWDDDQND
UniProt P47756, whole entry, looked up: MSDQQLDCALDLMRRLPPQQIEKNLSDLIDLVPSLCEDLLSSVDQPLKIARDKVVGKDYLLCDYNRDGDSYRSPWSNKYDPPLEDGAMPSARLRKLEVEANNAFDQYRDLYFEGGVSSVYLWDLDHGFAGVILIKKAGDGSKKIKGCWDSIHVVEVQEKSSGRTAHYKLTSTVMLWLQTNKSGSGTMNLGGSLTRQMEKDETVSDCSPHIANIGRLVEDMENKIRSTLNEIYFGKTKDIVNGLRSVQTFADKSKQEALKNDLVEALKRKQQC
UniProt P46013: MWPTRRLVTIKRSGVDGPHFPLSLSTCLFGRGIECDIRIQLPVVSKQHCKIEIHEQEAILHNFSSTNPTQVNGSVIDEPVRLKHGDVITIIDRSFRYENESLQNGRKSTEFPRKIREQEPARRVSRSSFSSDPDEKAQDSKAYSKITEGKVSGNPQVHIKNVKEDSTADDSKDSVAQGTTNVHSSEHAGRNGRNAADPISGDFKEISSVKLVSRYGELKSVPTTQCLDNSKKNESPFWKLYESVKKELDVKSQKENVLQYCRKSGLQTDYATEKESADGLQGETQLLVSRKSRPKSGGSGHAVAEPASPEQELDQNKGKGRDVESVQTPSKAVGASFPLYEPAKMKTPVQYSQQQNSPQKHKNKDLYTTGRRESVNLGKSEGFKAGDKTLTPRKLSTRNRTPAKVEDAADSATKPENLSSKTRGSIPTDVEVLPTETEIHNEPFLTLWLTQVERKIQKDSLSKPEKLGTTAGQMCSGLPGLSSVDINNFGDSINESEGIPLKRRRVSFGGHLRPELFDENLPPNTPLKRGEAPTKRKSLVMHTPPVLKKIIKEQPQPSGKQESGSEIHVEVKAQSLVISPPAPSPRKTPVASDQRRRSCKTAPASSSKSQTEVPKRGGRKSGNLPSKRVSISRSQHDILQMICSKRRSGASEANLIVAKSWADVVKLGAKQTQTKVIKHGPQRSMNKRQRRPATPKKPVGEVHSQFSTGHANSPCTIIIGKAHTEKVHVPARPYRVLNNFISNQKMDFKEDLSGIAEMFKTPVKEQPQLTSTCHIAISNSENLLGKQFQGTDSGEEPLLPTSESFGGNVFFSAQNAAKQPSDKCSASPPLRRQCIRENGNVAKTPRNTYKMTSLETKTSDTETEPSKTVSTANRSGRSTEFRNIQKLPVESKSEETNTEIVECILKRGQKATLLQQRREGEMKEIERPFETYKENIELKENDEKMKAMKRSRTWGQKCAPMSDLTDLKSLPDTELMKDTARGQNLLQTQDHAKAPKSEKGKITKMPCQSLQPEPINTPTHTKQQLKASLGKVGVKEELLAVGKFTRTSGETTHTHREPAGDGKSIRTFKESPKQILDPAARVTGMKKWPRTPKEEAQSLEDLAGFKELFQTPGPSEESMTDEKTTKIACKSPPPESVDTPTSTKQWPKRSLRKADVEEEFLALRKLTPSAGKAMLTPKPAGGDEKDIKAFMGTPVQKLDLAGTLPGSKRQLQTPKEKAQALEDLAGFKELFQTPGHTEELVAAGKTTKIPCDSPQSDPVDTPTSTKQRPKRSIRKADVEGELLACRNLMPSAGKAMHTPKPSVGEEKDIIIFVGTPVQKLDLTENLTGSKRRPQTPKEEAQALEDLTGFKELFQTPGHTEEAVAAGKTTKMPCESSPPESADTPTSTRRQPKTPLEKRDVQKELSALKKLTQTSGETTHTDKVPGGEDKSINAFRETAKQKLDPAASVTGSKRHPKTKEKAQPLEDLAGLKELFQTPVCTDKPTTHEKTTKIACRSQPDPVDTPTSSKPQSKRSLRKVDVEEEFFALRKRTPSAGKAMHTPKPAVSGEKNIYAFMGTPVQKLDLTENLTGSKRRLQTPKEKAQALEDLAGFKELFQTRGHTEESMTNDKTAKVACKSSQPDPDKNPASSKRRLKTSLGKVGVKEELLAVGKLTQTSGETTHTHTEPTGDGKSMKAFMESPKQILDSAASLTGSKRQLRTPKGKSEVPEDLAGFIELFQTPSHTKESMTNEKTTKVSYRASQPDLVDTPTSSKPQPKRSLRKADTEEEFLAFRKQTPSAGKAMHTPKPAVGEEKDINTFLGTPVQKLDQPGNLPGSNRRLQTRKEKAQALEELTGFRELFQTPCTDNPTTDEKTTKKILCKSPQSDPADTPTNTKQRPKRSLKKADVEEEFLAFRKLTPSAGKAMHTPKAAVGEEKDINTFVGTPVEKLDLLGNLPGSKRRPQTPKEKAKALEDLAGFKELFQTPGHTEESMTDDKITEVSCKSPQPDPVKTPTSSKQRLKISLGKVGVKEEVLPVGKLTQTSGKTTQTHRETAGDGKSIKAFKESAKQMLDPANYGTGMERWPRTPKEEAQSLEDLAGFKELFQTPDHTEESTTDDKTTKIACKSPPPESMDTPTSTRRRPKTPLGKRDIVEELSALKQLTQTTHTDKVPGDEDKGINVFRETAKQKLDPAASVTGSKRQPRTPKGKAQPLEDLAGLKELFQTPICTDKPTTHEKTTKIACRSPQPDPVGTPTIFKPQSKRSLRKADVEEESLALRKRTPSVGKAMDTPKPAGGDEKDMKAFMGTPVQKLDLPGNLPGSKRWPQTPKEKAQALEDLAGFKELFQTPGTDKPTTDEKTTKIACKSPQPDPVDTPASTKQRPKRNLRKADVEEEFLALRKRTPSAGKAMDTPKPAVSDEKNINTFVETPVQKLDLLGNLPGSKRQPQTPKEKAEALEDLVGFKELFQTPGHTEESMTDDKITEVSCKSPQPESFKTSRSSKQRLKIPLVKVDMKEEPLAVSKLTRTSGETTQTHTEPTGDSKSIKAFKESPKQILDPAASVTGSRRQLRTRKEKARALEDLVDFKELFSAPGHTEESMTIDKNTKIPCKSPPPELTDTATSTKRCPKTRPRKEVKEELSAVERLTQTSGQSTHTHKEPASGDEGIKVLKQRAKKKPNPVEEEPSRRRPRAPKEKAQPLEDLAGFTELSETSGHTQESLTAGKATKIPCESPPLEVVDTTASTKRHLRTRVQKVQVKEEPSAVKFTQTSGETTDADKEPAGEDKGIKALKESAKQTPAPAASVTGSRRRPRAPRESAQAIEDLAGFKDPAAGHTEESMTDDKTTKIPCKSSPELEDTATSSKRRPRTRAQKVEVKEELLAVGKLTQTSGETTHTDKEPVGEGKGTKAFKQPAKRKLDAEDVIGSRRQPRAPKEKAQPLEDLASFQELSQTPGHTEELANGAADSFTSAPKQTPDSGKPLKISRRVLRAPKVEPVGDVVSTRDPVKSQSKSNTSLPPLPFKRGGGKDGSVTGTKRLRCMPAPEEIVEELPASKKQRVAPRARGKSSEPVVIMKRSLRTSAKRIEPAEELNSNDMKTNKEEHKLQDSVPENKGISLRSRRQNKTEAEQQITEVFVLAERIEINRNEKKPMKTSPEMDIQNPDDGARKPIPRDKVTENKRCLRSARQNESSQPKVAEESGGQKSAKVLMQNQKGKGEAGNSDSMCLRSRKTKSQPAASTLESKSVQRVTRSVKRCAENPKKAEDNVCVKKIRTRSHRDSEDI

This is a selection; strong and weak results do not stand in their true shares. Single values of this set are uncertain.

Compound in the assay: COC(=O)/C=C/c1ccccc1 [methyl cinnamate]
Put plainly: log2 ratio of iodoacetamide-alkyne labeling of the cysteine site, DMSO over compound (competition); higher = stronger covalent engagement of the cysteine by the compound, active = 1 or more. Particulars: 500 µM; treatment time 1 h; system: HEK293T cell lysate. The procedure, abridged:
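After 1 h at ambient temperature with vehicle or electrophile (500 µM), HEK293T lysate (2 mg/mL) was labelled for 1 h with iodoacetamide alkyne and clicked to sCIP-TMT reagents. Pooled samples were trypsin-digested overnight at 37 °C, streptavidin-enriched, acid-eluted and analysed by Orbitrap Eclipse LC-MS/MS with FAIMS, then quantified in FragPipe over three replicates with duplicate channels. A cysteine's log2 competition ratio is its mean control-channel over mean compound-channel reporter intensity. Cysteines quantified in only one replicate were not included.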
In the case of CCT3 C279 (UniProt P49368), the “log2 ratio of iodoacetamide-alkyne labeling” value (“log2 ratio” for short) is inactive: 0.206. The result for PRIM2 C25 (UniProt P49643) reads inactive: -0.0916. The result for GMPS C554 (UniProt P49915) reads inactive: -0.0187; that for RPL28 C13 (UniProt P46779), inactive: 0.029. For RPL21 C56 (UniProt P46778) the value was inactive: 0.241. For GDI2 C202 (UniProt P50395), the “log2 ratio” value was inactive: 0.124. The result for NDUFV1 C425 (UniProt P49821) reads inactive: 0.208. For IDH3A C222 (UniProt P50213) the value was inactive: 0.366; for METAP2 C121 (UniProt P50579), inactive: 0.373; for SRP9 C48 (UniProt P49458), inactive: -0.00062. The result for IQGAP1 C781 (UniProt P46940) reads inactive: 0.432.

In the case of RANBP1 C132 (UniProt P43487), the “log2 ratio” value is inactive: 0.0918. The result for UniProt P46734_C305 reads inactive: -0.355; that for GMPS C631 (UniProt P49915), inactive: 0.221. For ST13 C16 (UniProt P50502) the value was inactive: 0.314; for RANBP2 C188 (UniProt P49792), inactive: 0.107; for FXR1 C157 (UniProt P51114), inactive: 0.284. The result for GPD2 C385 (UniProt P43304) reads inactive: 0.0364; that for CCT8 C430 (UniProt P50990), inactive: 0.425.

On to NAMPT C401 (UniProt P43490), for which the “log2 ratio” value is inactive: 0.321. On to FASN C779 (UniProt P49327), for which the “log2 ratio” value is inactive: 0.0523. For CBX5 C160 (UniProt P45973) the value was inactive: 0.397; for UniProt P48730_C255, inactive: 0.106. The result for GMPS C449 (UniProt P49915) reads inactive: 0.0813. For RPL34 C83 (UniProt P49207) the value was inactive: 0.0307; for CAPZB C206 (UniProt P47756), inactive: 0.297.

As to RANBP2 C1335 (UniProt P49792), the “log2 ratio” value was inactive: -0.00746. As to GMPS C456 (UniProt P49915), the “log2 ratio” value is inactive: -0.00947.

Regarding GCLC C553 (UniProt P48506), the “log2 ratio” value is inactive: 0.156.

In the case of RBM25 C83 (UniProt P49756), the “log2 ratio” value is inactive: 0.302. With CRKL C44 (UniProt P46109), the “log2 ratio” value is inactive: 0.121. Consider CCT5 C253 (UniProt P48643), for which the “log2 ratio” value is inactive: -0.00151. Consider NUP153 C148 (UniProt P49790), for which the “log2 ratio” value was inactive: -0.0245.

Take MKI67 C1843 (UniProt P46013): the “log2 ratio” value was inactive: 0.128. The result for FASN C1992 (UniProt P49327) reads inactive: 0.124; that for RPL34 C49 (UniProt P49207), inactive: 0.24. The result for PRIM1 C354 (UniProt P49642) reads inactive: 0.0483.
